Assay results taken from patent US6426105B1, “Use of lysophosphatidylethanolamine (18.1) and lysophosphatidylinositol to retard senescence and to enhance fruit ripening” (Wisconsin Alumni Research Foundation, priority 1997, dated 2002).
Some entries share one result that the patent states for a list of compounds.

Tested on: snapdragon flowering spikes
Assay: Vase life and senescence of cut snapdragon spikes
Conditions: water-treated 4 days

lysophosphatidylinositol [LPI]
time flowers remained marketable: up to 13 days
